Data on one compound can be found in US20110207784A1, “OXADIAZOLE-2-OXIDES AS ANTISCHISTOSOMAL AGENTS” (THE UNITED STATES OF AMERICA, AS REPRESENTED BY THE …, priority 2008, published 2011).

Chains of the proteins cited; added tags and fusions are not shown. Residues count along the entry.
UniProt Q962Y6, 1-598: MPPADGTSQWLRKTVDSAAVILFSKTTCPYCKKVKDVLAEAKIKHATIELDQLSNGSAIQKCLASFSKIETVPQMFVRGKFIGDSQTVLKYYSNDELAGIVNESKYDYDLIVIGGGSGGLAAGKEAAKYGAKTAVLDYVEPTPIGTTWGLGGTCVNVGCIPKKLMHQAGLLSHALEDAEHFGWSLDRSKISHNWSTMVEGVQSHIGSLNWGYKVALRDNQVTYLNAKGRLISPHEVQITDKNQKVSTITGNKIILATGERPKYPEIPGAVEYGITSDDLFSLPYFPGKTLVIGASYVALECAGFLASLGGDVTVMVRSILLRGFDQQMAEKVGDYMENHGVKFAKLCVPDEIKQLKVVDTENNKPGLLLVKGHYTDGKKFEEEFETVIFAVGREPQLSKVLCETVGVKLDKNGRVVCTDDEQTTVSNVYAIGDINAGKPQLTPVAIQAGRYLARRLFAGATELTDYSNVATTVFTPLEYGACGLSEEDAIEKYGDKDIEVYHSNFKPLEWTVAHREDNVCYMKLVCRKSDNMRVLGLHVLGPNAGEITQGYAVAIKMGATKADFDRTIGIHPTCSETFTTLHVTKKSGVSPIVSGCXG

In this assay the target is Recombinant thioredoxin glutathione reductase (TGR) (Schistosoma mansoni, UniProt Q962Y6). Type of assay: biochemical, S. mansoni.

For `N#Cc1c(-c2csc(-c3no[n+]([O-])c3C#N)c2)no[n+]1[O-]` [Compound 54, 4,4′-(thiophen-2,4-diyl)bis(3-cyano-1,2,5-oxadiazole 2-oxide)], the IC50 amounted to 350 nM.

Broadly, the IC50 is the concentration needed to halve the response being measured.
